For the test, the target named is GluA1 (UniProt P23818). The test is described as follows: co-IP; hippocampal neurones co-transfected with pTT5-Stargazin-His and pTT5-GluA1-Flag, 48 h; Aβ1-42-induced cells; lysates incubated with Flag-tagged antibody at 4 °C overnight, Protein A/G Plus-Agarose 6 h, washed with PBS; blot with GluA1 and Stargazin antibodies; caspase-1 said to inhibit the interaction.

Amino acid sequences for entries named in this document (tags omitted). Residues count along the entry.
UniProt P23818, residues 19-907: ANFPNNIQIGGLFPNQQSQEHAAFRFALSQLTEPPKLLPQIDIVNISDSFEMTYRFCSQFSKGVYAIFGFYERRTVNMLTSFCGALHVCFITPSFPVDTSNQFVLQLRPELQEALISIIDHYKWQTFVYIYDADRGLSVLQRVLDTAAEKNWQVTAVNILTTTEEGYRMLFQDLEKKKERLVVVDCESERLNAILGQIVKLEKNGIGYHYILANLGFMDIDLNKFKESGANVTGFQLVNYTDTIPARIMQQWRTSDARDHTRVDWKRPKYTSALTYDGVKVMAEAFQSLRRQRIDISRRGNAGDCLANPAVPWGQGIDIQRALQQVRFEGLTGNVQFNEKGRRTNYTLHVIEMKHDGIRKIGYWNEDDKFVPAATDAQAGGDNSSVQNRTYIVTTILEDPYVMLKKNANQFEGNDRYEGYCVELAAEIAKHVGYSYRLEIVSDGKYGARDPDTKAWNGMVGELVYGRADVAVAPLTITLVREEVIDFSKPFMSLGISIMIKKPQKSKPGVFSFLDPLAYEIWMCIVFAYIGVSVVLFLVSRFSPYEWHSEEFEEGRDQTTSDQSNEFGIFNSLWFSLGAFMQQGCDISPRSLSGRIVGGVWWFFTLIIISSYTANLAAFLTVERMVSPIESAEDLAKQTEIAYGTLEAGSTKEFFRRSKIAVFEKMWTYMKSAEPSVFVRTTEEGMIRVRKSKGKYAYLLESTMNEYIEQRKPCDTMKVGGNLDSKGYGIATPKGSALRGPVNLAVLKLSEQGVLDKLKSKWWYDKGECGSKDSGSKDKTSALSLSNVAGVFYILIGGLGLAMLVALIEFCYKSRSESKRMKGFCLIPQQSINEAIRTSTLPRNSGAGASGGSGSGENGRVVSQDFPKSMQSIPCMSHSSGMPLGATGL

No constants are given. Whether binding was seen depends on the method and setting. Binding seen in cells or lysates may run through a third protein. Some entries that bind do so weakly or less than the wild type.

B1: Stargazin (protein, UniProt O88602 1-323)
chain: MGLFDRGVQMLLTTVGAFAAFSLMTIAVGTDYWLYSRGVCKTKSVSENETSKKNEEVMTHSGLWRTCCLEGNFKGLCKQIDHFPEDADYEADTAEYFLRAVRASSIFPILSVILLFMGGLCIAASEFYKTRHNIILSAGIFFVSAGLSNIIGIIVYISANAGDPSKSDSKKNSYSYGWSFYFGALSFIIAEMVGVLAVHMFIDRHKQLRATARATDYLQASAITRIPSYRYRYQRRSRSSSRSTEPSHSRDASPVGVKGFNTLPSTEISMYTLSRDPLKAATTPTATYNSDRDNSFLQVHNCIQKDSKDSLHANTANRRTTPV
On to B1, for which the binding entry is “binds”.

The record behind these values is publication PMC7842056.
